The record followed here is ChEMBL document CHEMBL4303122, “Identification of potential treatments for COVID-19 through artificial intelligence-enabled phenomic analysis of human cells infected with SARS-CoV-2” (2020).

Where a name gives a salt, the structure may show the parent alone. Over roughly 1,600 compounds, “Hit score” has its median near 0.13; the highest 2% begin near 0.46. This is one part of the list.

The test system of the experiment is SARS-CoV-2. As to the kind of experiment: Antiviral activity against SARS-CoV-2 (USA-WA1/2020 strain) measured by imaging in HRCE cells at MOI 0.4 after 96 hrs (reported as hit score from 0-1 for on-disease vs off-disease activity: scores >0.6 considered hits). The class given is functional, Homo sapiens.
In turn, `CCCCCCCCC(=O)NCc1ccc(O)c(OC)c1` [NONIVAMIDE] registered a Hit score of 0.2361. The compound `C[N+]1(C)CCC(OC(=O)C(O)(c2ccccc2)C2CCCC2)C1.[Br-]` (stereo not drawn) [GLYCOPYRRONIUM BROMIDE] had a Hit score of 0.1715.

Compound `COC(=O)[C@H]1[C@H]2C[C@@H]3c4[nH]c5ccccc5c4CCN3C[C@H]2C[C@@H](OC(=O)c2cc(OC)c(OC)c(OC)c2)[C@@H]1OC` [DESERPIDINE] displayed a Hit score of 0.0138. Take `CSc1ccc(OCc2ncc([N+](=O)[O-])n2C)cc1` [FEXINIDAZOLE]: the Hit score worked out at 0.1901. To `CN(C)c1ccc(O)c2c1C[C@H]1C[C@H]3[C@H](N(C)C)C(O)=C(C(N)=O)C(=O)[C@@]3(O)C(O)=C1C2=O` [MINOCYCLINE] belongs 0.178; to `CCCCCCCCCCCCCCCCOP(=O)([O-])OCC[N+](C)(C)C` [MILTEFOSINE], 0.1709. As for `Cc1ccc(S(=O)(=O)NC(=O)NN2CCCCCC2)cc1` [TOLAZAMIDE], the figure is 0.157; as for `CN1CCN(c2c(F)cc3c(=O)c(C(=O)O)cn4c3c2OCN4C)CC1` [MARBOFLOXACIN], 0.2428; as for `CC(C)(C)CC(C)(C)c1ccc(O)c(Cc2ccc(Cl)cc2Cl)c1` [CLOFOCTOL], 0.3255.

Turning to `CNC[C@H](O)[C@@H](O)[C@H](O)[C@H](O)CO.O=C(O)c1ccc2nc(-c3cc(Cl)cc(Cl)c3)oc2c1` [TAFAMIDIS MEGLUMINE], the Hit score came out at 0.09069. As for `C[C@H]1C[C@@H]2[C@H]([C@@H](O)C[C@@]3(C)[C@H]2CC[C@]3(O)C(=O)COC(=O)CCC(=O)[O-])[C@@]2(C)C=CC(=O)C=C12.[Na+]` [METHYLPREDNISOLONE SODIUM SUCCINATE], the Hit score amounted to 0.2909. To `C=CCSCC1Nc2cc(Cl)c(S(N)(=O)=O)cc2S(=O)(=O)N1` (stereo not drawn) [ALTHIAZIDE] belongs 0.1758; to `C=CC(=O)Nc1cccc(Oc2nc(Nc3ccc(N4CCN(C)CC4)cc3)nc3ccsc23)c1` [OLMUTINIB], 0.2407. Take `O=C(O)CCC/C=C\CC1C(O)CC(O)C1/C=C/C(O)COc1cccc(Cl)c1` (stereo not drawn) [CLOPROSTENOL]: the Hit score was -0.03107. In the case of `CC(C(=O)O)c1ccc(C(=O)c2ccccc2)s1` (stereo not drawn) [TIAPROFENIC ACID], the Hit score worked out at 0.1568. To `O=C1CCCC(=O)C1C(=O)c1ccc(C(F)(F)F)cc1[N+](=O)[O-]` [NITISINONE] belongs 0.2981; to `CN(C)CC/C=C1/c2ccccc2COc2ccc(CC(=O)O)cc21` [OLOPATADINE], 0.1069; to `c1ccc(CN(CC2=NCCN2)c2ccccc2)cc1` [ANTAZOLINE], 0.1577. Consider `O=C(/C=C/c1ccc(O)c(O)c1)O[C@@H]1C[C@](O)(C(=O)O)C[C@@H](O)[C@H]1O` [CHLOROGENIC ACID], for which the Hit score came out at 0.1702. On to `CCC[C@@]1(CCc2ccccc2)CC(O)=C([C@H](CC)c2cccc(NS(=O)(=O)c3ccc(C(F)(F)F)cn3)c2)C(=O)O1`, for which the Hit score was 0.04844. `CC(=O)Nc1cc([As](=O)(O)O)ccc1O` [ACETARSONE] displayed a Hit score of 0.1947. Compound `C#C[C@]1(O)C=C[C@H]2[C@@H]3CCC4=CC(=O)CC[C@@H]4[C@H]3CC[C@@]21CC` [GESTODENE] had a Hit score of 0.1957. As for `C=CCOC(Cn1ccnc1)c1ccc(Cl)cc1Cl` (stereo not drawn) [ENILCONAZOLE], the figure is 0.1595. Compound `CC(CN(C)C)CN1c2ccccc2Sc2ccccc21` (stereo not drawn) [METHYLPROMAZINE] returned a Hit score of 0.07799. With `N=C(N)NCCN1CCCCCCC1` [GUANETHIDINE], the Hit score was found to be 0.1165. The compound `O=c1[nH]c2ccccc2n1C1CCN(CCCC(c2ccc(F)cc2)c2ccc(F)cc2)CC1` [PIMOZIDE] had a Hit score of 0.09909. On to `CC(C)(C)C(=O)OCC(=O)[C@H]1CC[C@H]2[C@@H]3CCC4=CC(=O)CC[C@]4(C)[C@H]3CC[C@]12C` [DESOXYCORTICOSTERONE PIVALATE], for which the Hit score was found to be 0.2223.

Take `CC(C)(C)[C@H]1CC[C@H](CC2=C(O)C(=O)c3ccccc3C2=O)CC1` [BUPARVAQUONE]: the Hit score was determined as 0.02451. As for `CCN(CC)CCOCCOC(=O)C(CC)(CC)c1ccccc1` [OXELADIN], the figure is 0.254; as for `CC(C)C[C@H](NC(=O)CNC(=O)c1cc(Cl)ccc1Cl)B1OC(=O)C(CC(=O)O)(CC(=O)O)O1` [IXAZOMIB CITRATE], -0.05941. `C#C[C@]1(O)CC[C@H]2[C@@H]3CCC4=Cc5oncc5C[C@]4(C)[C@H]3CC[C@@]21C` [DANAZOL] gave a Hit score of 0.2899.

As to `CN(C)C(=O)Oc1ccc[n+](C)c1` [PYRIDOSTIGMINE], the Hit score amounted to 0.002406. `Cc1cc(N)c2ccccc2[n+]1CCCCCCCCCC[n+]1c(C)cc(N)c2ccccc21` had a Hit score of -0.1244. The compound `COc1cc(N2CCC(N3CCN(C)CC3)CC2)ccc1Nc1ncc(Cl)c(Nc2ccccc2P(C)(C)=O)n1` [BRIGATINIB] displayed a Hit score of 0.1463.

Regarding `CCOC(=O)[C@H](CCc1ccccc1)N[C@@H](C)C(=O)N1[C@H](C(=O)O)C[C@H]2CCCC[C@@H]21` [TRANDOLAPRIL], the Hit score is given as 0.3202. With `COC(=O)Nc1nc2cc([S+]([O-])c3ccccc3)ccc2[nH]1` (stereo not drawn) [OXFENDAZOLE], the Hit score came to 0.1975.

`O=C(NC1CCN(CCc2c[nH]c3ccccc23)CC1)c1ccccc1` [INDORAMIN] gave a Hit score of 0.08748.

As to `NC1CCN(c2nc3c(cc2F)c(=O)c(C(=O)O)cn3-c2ccc(F)cc2F)C1` (stereo not drawn) [TOSUFLOXACIN], the Hit score amounted to 0.08835. With `CCCOc1ccc(S(=O)(=O)N2CCN(CCO)CC2)cc1-c1nc2c(CCC)cn(CC)c2c(=O)[nH]1` [MIRODENAFIL], the Hit score amounted to 0.1469. For `C#CCN(C)[C@H](C)Cc1ccccc1` [SELEGILINE], the Hit score is listed as 0.3132. To `CCNC1=Nc2ccc(Cl)cc2C(C)(c2ccccc2)O1` (stereo not drawn) [ETIFOXINE] belongs 0.1787; to `CC[C@H]1[C@@H](O)[C@@H]2[C@H](CC[C@]3(C)[C@@H]([C@H](C)CCC(=O)O)CC[C@@H]23)[C@@]2(C)CC[C@@H](O)C[C@@H]12` [OBETICHOLIC ACID], 0.5073. As for `Cc1cnc(C(=O)N[C@H]2CCCCC/C=C\[C@@H]3C[C@@]3(C(=O)NS(=O)(=O)C3CC3)NC(=O)[C@@H]3C[C@@H](Oc4nc5ccccc5c5ccccc45)CN3C2=O)cn1`, the figure is 0.151; as for `COc1c(N2CCNC(C)C2)c(F)cc2c(=O)c(C(=O)O)cn(C3CC3)c12` (stereo not drawn) [GATIFLOXACIN], 0.1144. The compound `O=C(c1ccccc1)c1ccc2n1CCC2C(=O)O` (stereo not drawn) [KETOROLAC] showed a Hit score of 0.2356. To `CC(C)n1c(/C=C/C(O)CC(O)CC(=O)[O-])c(-c2ccc(F)cc2)c2ccccc21.[Na+]` (stereo not drawn) [FLUVASTATIN SODIUM] belongs 0.0921; to `C#CCC(Cc1cnc2nc(N)nc(N)c2n1)c1ccc(C(=O)N[C@@H](CCC(=O)O)C(=O)O)cc1` (stereo partly drawn) [PRALATREXATE], 0.06018.

Regarding `CCN(CC)CCOc1ccc2c(c1)C(=O)c1cc(OCCN(CC)CC)ccc1-2.Cl.Cl` [TILORONE HYDROCHLORIDE], the Hit score came out at 0.04106.

`O=C(C[S+]([O-])Cc1ccco1)NC/C=C\COc1cc(CN2CCCCC2)ccn1` (stereo not drawn) [LAFUTIDINE] yielded a Hit score of 0.2245.

For the compound `CN(C)CC(c1ccc(O)cc1)C1(O)CCCCC1` (stereo not drawn) [DESVENLAFAXINE], the Hit score worked out at 0.0828.

Turning to `NC(=O)[C@@H]1CCCN1C(=O)[C@H](Cc1c[nH]cn1)NC(=O)[C@@H]1CCC(=O)N1` [PROTIRELIN], the Hit score turned out to be 0.04354. In turn, `C[C@]12C=CC(=O)N[C@@H]1CC[C@@H]1[C@@H]2CC[C@]2(C)[C@@H](C(=O)Nc3cc(C(F)(F)F)ccc3C(F)(F)F)CC[C@@H]12` [DUTASTERIDE] showed a Hit score of 0.3162. To `Cc1ccc(/C=C2\CNC/C(=C\c3ccc(C)cc3)C2=O)cc1.Cl` belongs 0.05741; to `CCC(=O)OCC(=O)[C@@]1(OC(=O)CC)[C@H](C)C[C@H]2[C@H]3[C@H]([C@@H](O)C[C@@]21C)[C@@]1(C)C=CC(=O)C=C1C[C@H]3Cl` [ALCLOMETASONE DIPROPIONATE], 0.08294; to `C[C@H]1C[C@@H]2[C@H]([C@@H](O)C[C@@]3(C)[C@H]2CC[C@]3(O)C(=O)CO)[C@@]2(C)C=CC(=O)C=C12` [METHYLPREDNISOLONE], 0.1629. In turn, `O=C1NC(=O)C(c2ccccc2)(c2ccccc2)N1` [PHENYTOIN] displayed a Hit score of 0.2216.

Regarding `CCN[C@@H]1C[C@H](N)[C@@H](O[C@H]2OC(CN)=CC[C@H]2N)[C@H](O)[C@H]1O[C@H]1OC[C@](C)(O)[C@H](NC)[C@H]1O` [NETILMICIN], the Hit score was 0.12. In turn, `CC[C@H](C)C(=O)O[C@H]1C[C@H](O)C=C2C=C[C@H](C)[C@H](CC[C@@H](O)C[C@@H](O)CC(=O)O)[C@H]21` [PRAVASTATIN] displayed a Hit score of 0.1363. Take `CN(C)C/C=C/C(=O)Nc1cc2c(Nc3ccc(F)c(Cl)c3)ncnc2cc1O[C@H]1CCOC1` [AFATINIB]: the Hit score is -0.1413.

For the compound `C=CCOc1ccccc1OCC(O)CNC(C)C` (stereo not drawn) [OXPRENOLOL], the Hit score was 0.08363. As for `O=C(/C=C/c1cccc(S(=O)(=O)Nc2ccccc2)c1)NO` [BELINOSTAT], the figure is -0.02011; as for `CC(C)(C)c1cc(NC(=O)Nc2ccc(-c3cn4c(n3)sc3cc(OCCN5CCOCC5)ccc34)cc2)no1` [QUIZARTINIB], -0.1028; as for `COc1cc2nc(N3CCN(C(=O)C4COc5ccccc5O4)CC3)nc(N)c2cc1OC` (stereo not drawn) [DOXAZOSIN], 0.04875.
